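An ATP-based luminescent cell-survival readout in CHO cells carrying a doxycycline-inducible RORgamma, read at 16 h.
A concentration series, mostly reaching 92.4 µM.
The number is the fitted potency (AC50, nM) for cell killing; lower values mean stronger cytotoxic potency.
Calls come from the fitted dose curve; inconclusive means weak or mixed curves, or an effect in the opposite direction.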

Values are in nM.
All entries here are filed as inconclusive.
Only part of the assay is shown, chiefly results filed as inconclusive.
Potencies fitted to partial, single-point or poorly fitting curves are rough.
Some entries filed as inconclusive have a full curve.
An entry listed twice with the same setting is a separate test.

* CC[C@H](C)C(=O)O[C@H]1C[C@@H](C)C=C2C=C[C@H](C)[C@H](CC[C@@H]3C[C@@H](O)CC(=O)O3)[C@H]21 | potency 8413 nM (cytotoxic, full curve)
* CC(C)(c1cc(Br)c(O)c(Br)c1)c1cc(Br)c(O)c(Br)c1 | potency 60882 nM (cytotoxic)
* N/C(=N\N=C\c1ccc(Cl)cc1)N/N=C/c1ccc(Cl)cc1 | potency 29849 nM (cytotoxic)
* Nc1cc(Cl)c(-c2cc(Cl)c(N)cc2Cl)cc1Cl | potency 136854 nM (cytotoxic, partial curve, poor fit)
* O=C(Nc1ccc(Cl)cc1)Nc1ccc(Cl)c(Cl)c1 | potency 27306 nM (cytotoxic, full curve)
* C=C[C@](C)(O)CC[C@@H]1[C@@]2(C)CCCC(C)(C)[C@@H]2CC[C@@]1(C)O | potency 68589 nM (cytotoxic, single point)
* Oc1c(Cl)cc(Cl)c2cccnc12 | potency 11883 nM (cytotoxic, partial curve, poor fit)
* Oc1c(Br)cc(Br)c2cccnc12 | potency 26603 nM (cytotoxic, partial curve)
* COc1ccc(CN2CCN(C(c3ccc(F)cc3)c3ccc(F)cc3)CC2)c(OC)c1OC | potency 29849 nM (cytotoxic, partial curve, poor fit)
* Nc1cc(Cl)c([N+](=O)[O-])cc1O | potency 24138 nM (cytotoxic, partial curve, poor fit)
* Oc1ccc2cc(SSc3ccc4cc(O)ccc4c3)ccc2c1 | potency 38570 nM (cytotoxic, partial curve, poor fit)
* S=C(SSSSSSC(=S)N1CCCCC1)N1CCCCC1 | potency 337.7 nM (cytotoxic, full curve)
* CCc1cc(Cc2cc(CC)c(N)c(CC)c2)cc(CC)c1N | potency 61130 nM (cytotoxic, partial curve, poor fit)
* CCCCC/C(=C\c1ccccc1)CO | potency 26982 nM (cytotoxic, partial curve, poor fit)
* COc1ccc(-c2nc3ccc(C4=NNC(=O)CC4C)cc3[nH]2)cc1 (centres undefined) | potency 29849 nM (cytotoxic, partial curve, poor fit)
* CC[C@H](C)C(=O)O[C@H]1C[C@@H](C)C=C2C=C[C@H](C)[C@H](CC[C@@H]3C[C@@H](O)CC(=O)O3)[C@H]21 | potency 13615 nM (cytotoxic, full curve)
* CC(=O)N1CCN(c2ccc(OC[C@H]3CO[C@](Cn4ccnc4)(c4ccc(Cl)cc4Cl)O3)cc2)CC1 | potency 54482 nM (cytotoxic, partial curve)
* CC(C)(C)CC(C)(C)c1ccc(OCCOCC[N+](C)(C)Cc2ccccc2)cc1 | potency 33491 nM (cytotoxic, single point)
* CC(C)(C)c1cc(/C=C2\SC(=N)NC2=O)cc(C(C)(C)C)c1O | potency 61130 nM (cytotoxic)
* CN(C)[C@@H](CCOc1cccc2ccccc12)c1ccccc1 | potency 29849 nM (cytotoxic, partial curve, poor fit)
* CCN(CC)C(=O)c1cc(S(=O)(=O)Cc2ccccc2)c(N2CCC(c3ccccc3)CC2)cc1N(CC)CCN(C)C | potency 26988 nM (cytotoxic, partial curve, poor fit)
* CCCCCCCCCOC(=O)c1ccc(O)cc1 | potency 21381 nM (cytotoxic, partial curve, poor fit)
* Oc1ccc(-c2ccccc2)c(Cl)c1 | potency 38570 nM (cytotoxic, partial curve, poor fit)
* Cc1cc2c(cc1C(F)(F)F)N(C(=O)Nc1ccc(Oc3cccnc3C)nc1)CC2 | potency 62017 nM (cytotoxic, single point)
* O=C(c1ccc(OCCN2CCCCC2)cc1)c1c(-c2ccc(O)cc2)sc2cc(O)ccc12 | potency 68589 nM (cytotoxic, partial curve, poor fit)
* C=CC(=O)OCC(O)COc1ccccc1 (centres undefined) | potency 68589 nM (cytotoxic, single point)

2 of the entries, repeated:

{"structure": "O=C(Nc1ccc(Cl)cc1)Nc1ccc(Cl)c(Cl)c1", "potency (nM)": "27306", "curve": "cytotoxic, full curve"}
{"structure": "CC[C@H](C)C(=O)O[C@H]1C[C@@H](C)C=C2C=C[C@H](C)[C@H](CC[C@@H]3C[C@@H](O)CC(=O)O3)[C@H]21", "potency (nM)": "8413", "curve": "cytotoxic, full curve"}

From PubChem BioAssay record AID1159520 (Tox21, 2015).